Test results reported in patent publication US11980645B2, “Bile acids and use in disease treatment” (The Regents of the University of California, priority 2019, dated 2024).

Test: Targeted MS quantification of novel conjugated bile acids in SPF mouse gut samples
Assay type: in vivo
Conditions: endogenous level; for Mean concentration in cecum / Mean concentration in colon / Mean concentration in ileum / Mean concentration in jejunum: SPF mice (n = 4)

C[C@H](CCC(=O)N[C@@H](Cc1ccccc1)C(=O)O)[C@H]1CC[C@H]2[C@@H]3[C@H](O)C[C@@H]4C[C@H](O)CC[C@]4(C)[C@H]3C[C@H](O)[C@]12C [Phe-chol, phenylalanocholic acid]
Mean concentration in cecum: 4.7 nmol/g tissue
Mean concentration in colon: 11.6 nmol/g tissue
Mean concentration in ileum: 83.6 nmol/g tissue
Mean concentration in jejunum: 147.0 nmol/g tissue
Mean concentration in cecum (listed as Phe): 4.74 nmol/g tissue
Mean concentration in colon (listed as Phe): 11.61 nmol/g tissue
Mean concentration in ileum (listed as Phe): 83.56 nmol/g tissue
Mean concentration in jejunum (listed as Phe): 147 nmol/g tissue
highest concentration in a single jejunum sample (SPF mice): 447.2 nmol/g tissue

C[C@H](CCC(=O)N[C@@H](Cc1ccc(O)cc1)C(=O)O)[C@H]1CC[C@H]2[C@@H]3[C@H](O)C[C@@H]4C[C@H](O)CC[C@]4(C)[C@H]3C[C@H](O)[C@]12C [Tyr-chol, tyrosocholic acid]
Mean concentration in cecum: <LOD
Mean concentration in colon: <LOD
Mean concentration in ileum: 56.03 nmol/g tissue
Mean concentration in jejunum: 114.09 nmol/g tissue
